Experimental data taken from publication PMC5187494, “Identification of Febuxostat as a New Strong ABCG2 Inhibitor: Potential Applications and Risks in Clinical Situations” (Frontiers in Pharmacology, 2016).

Experiments:
[1] = design: method as in general information provided by pharmaceutical industries; conditions: ref general information provided by pharmaceutical industries; cited from earlier work
[2] = design: method as in general information provided by pharmaceutical industries; conditions: human plasma, reported Cmax; ref general information provided by pharmaceutical industries; cited from earlier work
human ABCG2 = biological target: T1, human ABCG2 (Homo sapiens, UniProt Q9UNQ0); experiment: In vitro urate transport assay with ABCG2-expressing plasma membrane vesicles
T1 sequence (Q9UNQ0 1-655): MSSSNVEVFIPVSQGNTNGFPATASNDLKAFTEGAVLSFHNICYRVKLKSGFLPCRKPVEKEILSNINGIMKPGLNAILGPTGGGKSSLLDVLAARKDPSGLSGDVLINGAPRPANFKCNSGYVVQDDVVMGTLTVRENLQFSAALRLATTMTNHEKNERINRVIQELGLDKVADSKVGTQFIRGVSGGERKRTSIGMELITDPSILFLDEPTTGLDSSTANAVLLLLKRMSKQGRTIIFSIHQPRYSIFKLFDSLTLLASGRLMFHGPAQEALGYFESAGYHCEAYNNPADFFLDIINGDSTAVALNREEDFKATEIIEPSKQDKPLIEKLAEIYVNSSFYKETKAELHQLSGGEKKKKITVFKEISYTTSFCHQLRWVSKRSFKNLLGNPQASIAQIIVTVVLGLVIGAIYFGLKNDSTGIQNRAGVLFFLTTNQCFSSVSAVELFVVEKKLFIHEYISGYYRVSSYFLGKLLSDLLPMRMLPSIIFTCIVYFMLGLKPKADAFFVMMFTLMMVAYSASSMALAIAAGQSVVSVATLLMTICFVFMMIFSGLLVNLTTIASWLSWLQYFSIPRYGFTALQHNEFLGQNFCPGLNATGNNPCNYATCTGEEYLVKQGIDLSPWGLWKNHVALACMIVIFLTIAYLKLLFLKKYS

[3] = Maximum (unbound) drug concentration in human plasma; format: in vivo; conditions: fu multiplied by reported Cmax

Row | SMILES | fu (unbound fraction in human plasma) [1] | Cmax [2] [nM] | IC50 (human ABCG2) [µM] | fuCmax (maximum unbound concentration in human plasma) [3] [µM]
1 | CC(C)c1c(C(=O)Nc2ccccc2)c(-c2ccccc2)c(-c2ccc(F)cc2)n1CC[C@@H](O)C[C@@H](O)CC(=O)O [Atorvastatin, atorvastatin] | 4.4 × 10^-2 | 2.2 | 4.3 | 9.6e-05
2 | NS(=O)(=O)c1cc(C(=O)O)c(NCc2ccco2)cc1Cl [Furosemide, furosemide] | 9.0 × 10^-2 | 2700 |  | 0.24
